Laboratory results from US8048928B2, “Therapeutic agent for treating liver disease containing 2-amino-1,3-propanediol derivative as active ingredient, and method for treating liver disease” (Kyorin Pharmaceutical Co., Ltd., priority 2005, dated 2011).
Where a name gives a salt, the structure may show the parent alone. At least one structure is not confirmed: it was looked up by name or label, or the drawing left a doubt.

How the values were obtained:
Format in all cases: in vivo, Male BALB/c mice
[1] = tested on: Con A-induced hepatitis model; assay: Con A-induced hepatitis model: liver histology (hematoxylin-eosin, anti-CD4 immunostaining)
[2] = tested on: Con A-induced hepatitis model; assay: Con A-induced hepatitis model: liver-infiltrating cells counted with FACS Calibur; details: group receiving KRP-203 (1 mg/kg)
Protocol: Male BALB/c mice, aged 8 to 12 weeks, were purchased from Charles River, Japan. Concanavalin A (referred to as “Con A,” hereinafter) was dissolved in phosphate-buffered saline (PBS). 0.2 ml of this solution was intravenously administered to the animals to deliver 40 mg/kg of Con A. KRP-203 suspended in distilled water was orally administered at a dose of 0.1 mg/10 g body weight 24 hours before the administration of Con A. The animals were sacrificed 24 hours after the administration of Con A and the serum transaminase activity was measured. Also, the liver was perfused with 30 mL 0.1% EDTA-PBS to collect liver infiltrate (Eur. J. Immunol., 17: 37, 1987). To avoid contamination with lymphocytes in the periphery blood, the first 2.5 ml of the collected 0.1% EDTA-PBS was discarded. The collected cells were stained with anti-CD4 antibody, anti-CD8 antibody, anti-CD3 antibody, anti-CD45/B220 antibody, anti-CD11b antibody, anti-Ly-49C antibody and were counted with FACS Calibur.

[3] = tested on: Con A-induced hepatitis model; assay: Con A-induced hepatitis model: serum transaminase (ALT) activity; details: serum 24 h after Con A

NC(CO)(CO)CCc1ccc(Sc2cccc(OCc3ccccc3)c2)cc1Cl [KRP-203, 2-amino-2-[4-(3-benzyloxyphenylthio)-2-chlorophenyl]ethyl-1,3-propanediol hydrochloride]
Liver histology: infiltration of monocytes and necrotic changes ([1]; hematoxylin-eosin staining, KRP-203 1 mg/kg (FIG. 2B)): No significant infiltration of monocytes or necrotic changes
Liver histology: infiltration of CD4^+ T cells ([1]; immunostaining with anti-CD4 antibody, KRP-203 1 mg/kg (FIG. 3B)): no infiltration
Infiltration of NK cells and monocytes into the liver [2]: little affected
Suppression of the infiltration of CD3^+ and CD4^+ T cells and B220^+ B cells into the liver [2]: particularly significant
Suppression of the infiltration of CD8^+ T cells and NK-T cells into the liver [2]: minor
Suppression of Con A-induced elevation of serum ALT (printed ATL) level ([3]; 0.1 mg/kg oral pre-administration 24 h before Con A): significantly suppressed
Suppression of Con A-induced elevation of serum ALT (printed ATL) level ([3]; 1 mg/kg oral pre-administration 24 h before Con A): significantly suppressed
Suppression of Con A-induced elevation of serum ALT (printed ATL) level ([3]; low dose 0.01 mg/kg oral pre-administration 24 h before Con A): tendency of suppression
